Results: publication PMC5566378
These are yes or no findings as the source states them, for the method shown. Some results given as binding are weak or reduced against the parent protein; the word gives no strength. Blank lines part the entries; values can stand above or below the binder they belong to.

Key:
[1] = target: T1, human IL-17RC extracellular domain (human) (UniProt Q8NAC3); test: SPR; Biacore 8K; IL-17RC ECD amine-coupled on a CM4 chip (about 500 RU); cytokines as analytes in PBS pH 7.4, 3 mM EDTA, 0.05% Tween20; 20 °C, 30 µl/min; 1:1 Langmuir model or steady-state analysis; both purified
T1 sequence: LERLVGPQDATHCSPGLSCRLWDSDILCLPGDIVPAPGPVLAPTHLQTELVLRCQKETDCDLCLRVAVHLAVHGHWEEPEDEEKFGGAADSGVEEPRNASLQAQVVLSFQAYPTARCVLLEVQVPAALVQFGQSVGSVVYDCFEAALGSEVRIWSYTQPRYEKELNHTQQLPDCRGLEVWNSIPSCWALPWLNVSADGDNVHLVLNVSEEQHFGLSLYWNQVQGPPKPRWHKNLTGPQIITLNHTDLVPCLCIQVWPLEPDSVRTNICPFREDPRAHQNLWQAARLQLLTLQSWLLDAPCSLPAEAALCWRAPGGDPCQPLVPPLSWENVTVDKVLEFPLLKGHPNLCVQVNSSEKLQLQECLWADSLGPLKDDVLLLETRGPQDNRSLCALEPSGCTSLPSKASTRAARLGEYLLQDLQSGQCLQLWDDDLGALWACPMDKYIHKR

[2] = target: human IL-17RA extracellular domain (human), Q96F46; test: SPR; Biacore 8K; biotinylated IL-17RA ECD immobilised on a streptavidin chip (about 500 RU); cytokines as analytes in PBS pH 7.4, 3 mM EDTA, 0.05% Tween20; 20 °C, 30 µl/min; 1:1 Langmuir model or steady-state analysis; both purified; conditions: remark: other sources report otherwise
[3] = target: human IL-17RA extracellular domain (human), Q96F46; test: crystal structure; IL-17A/F with IL-17RA ECD, deglycosylated complex; monoclinic crystals, 0.1 M HEPES pH 7.5, 15% PEG MME 5000, 0.05 M ammonium acetate, 20 °C; 3.3 Å; two complexes in the asymmetric unit; both purified; conditions: remark: other sources report otherwise

binding [1]: binds
B1: human IL-17F homodimer (ligand, UniProt Q96PD4 31-163)
chain: RKIPKVGHTFFQKPESCPPVPGGSMKLDIGIINENQRVSMSRNIESRSTSPWNYTVTWDPNRYPSEVVQAQCRNLGCINAQGKEDISMNSVPIQQETLVVRRKHQGCSVSFQLEKVLVTVGCTCVTPVIHHVQ

binding [2]: binds
B2: human IL-17F homodimer, Q96PD4 31-163 (protein)
chain: RKIPKVGHTFFQKPESCPPVPGGSMKLDIGIINENQRVSMSRNIESRSTSPWNYTVTWDPNRYPSEVVQAQCRNLGCINAQGKEDISMNSVPIQQETLVVRRKHQGCSVSFQLEKVLVTVGCTCVTPVIHHVQ
modifications: here or on the partner: biotin on the Avi-tag (E. coli BirA), for the SPR measurements only

binding [3]: binds
B3: IL-17F chain of the human IL-17A/F heterodimer, Q96PD4 31-163 (protein)
chain: RKIPKVGHTFFQKPESCPPVPGGSMKLDIGIINENQRVSMSRNIESRSTSPWNYTVTWDPNRYPSEVVQAQCRNLGCINAQGKEDISMNSVPIQQETLVVRRKHQGCSVSFQLEKVLVTVGCTCVTPVIHHVQ
modifications: here or on the partner: N-linked glycosylation at Asn83 (seen in the crystal); biotin on the Avi-tag (E. coli BirA), for the SPR measurements only
